## Library screening results

Source: ChEMBL document CHEMBL3988442, “University of Dundee, Small-Polar-MMV Screening Library” (2021).

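Whole-cell assay for inhibitors of Mycobacterium tuberculosis growth, labelled Cornell in the record; the read-out is not stated. The concentration is filed as 10 mM, unlikely as a test dose, so the dose is not known. Higher means stronger inhibition (inferred from two other growth screens of the library). About 53,000 compounds were tested under these conditions; 1.7% (about 900) showed 50% or more at least once.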

The filed quantity is “Percent Effect” (%).
How 0% and 100% were set is not recorded. Most values in the screen are low, and negative values occur.
The compounds are a random part of those screened.

Compound | effect
CNc1oc(COc2ccc3c(c2)OCO3)nc1C#N | -5.351%
O=S(=O)(Cc1ccc(F)cc1)N1CCN(CC(O)C2CC2)CC1 (configuration not stated) | 18.62%
CN(Cc1cccc(-n2cccn2)c1)Cc1c[nH]cn1 | -2.105%
CC(CCNC(=O)NCCc1ccc(S(N)(=O)=O)cc1)c1ccccc1 (configuration not stated) | 0.5568%
Cc1nc(C)n(CC2CCCN(c3ncnc4sccc34)C2)n1 (configuration not stated) | -6.342%
CCCN(Cc1cnn(C)c1)CC1CCCN(S(C)(=O)=O)C1 (configuration not stated) | -39.97%
Cc1cnn(CCNCc2c(C)nn(Cc3ccccc3)c2C)c1 | -0.9127%
O=C(CCCn1cccn1)N1CCCC(n2cncn2)C1 (configuration not stated) | -2.394%
COc1cccc(N2CC3(CCN(c4ccc(C)nn4)C3)CC2=O)c1 (configuration not stated) | 4.99%
O=C(O)Cn1ccc(=O)c2ccccc21 | -7.09%
CCc1nc(CC(=O)NCC2(C(N)=O)CCOCC2)cs1 | -25.36%
CC1c2ncc(Cn3cccn3)n2CCN1S(C)(=O)=O.O=C(O)C(F)(F)F (configuration not stated) | -30.36%
N#Cc1ccc(C(=O)N2CCC(Oc3ccc(C#N)cn3)CC2)cc1 | 7.95%
COC(=O)NCC(=O)N1CCc2cc(Cl)cc(Cl)c2C1 | 14.52%
Cc1cc(C(=O)NCCC2CCN(C)CC2)ccc1N(C)S(C)(=O)=O | 3.918%
O=C(Nc1ccc2c(c1)OCO2)N1CCN(CCn2cccn2)CC1 | -15.71%
COc1ccc(-c2nc(CCNC(=O)NC3CCC(O)CC3)co2)cc1 (configuration not stated) | -47.25%
CCC(CN1CCN(C)CC1)NC(=O)C1(c2cccc(F)c2)CC1.O=C(O)CC(O)(CC(=O)O)C(=O)O (configuration not stated) | 37.61%
CCc1ccc(CN2CCN(C)c3ncccc3C2)o1.O=C(O)C(F)(F)F.O=C(O)C(F)(F)F | -1.149%
CN(C)c1ccc(CNc2cncc(-n3cccn3)n2)cc1 | -27.24%
COc1ccc(NC2CCCN(Cc3cnc(N(C)C)s3)C2)cc1OC (configuration not stated) | 55.76%
Cc1nc(COC(=O)c2cccc3c2OCCO3)no1 | -14.77%
O=C(O)C(F)(F)F.[H][C@@]12COC[C@]1(CNC(=O)c1ccccc1)CN(CC1CCOCC1)C2 | 14.72%
CC1COCCN1Cc1nc(-c2cccc(C(F)(F)F)c2)no1 (configuration not stated) | 11.75%
CN(C)CC1(O)CCN(C(=O)c2cnc(CN3CCCC3)s2)C1 (configuration not stated) | -17.06%
CC(C)(C)n1ncc2c(=O)n(CC(=O)NCc3ccco3)cnc21 | 0.4855%
CC(=O)c1c(C)nn(CC(=O)N2Cc3cnc(CC(C)C)nc3C2)c1C | 13.33%
[H][C@@]12CN(C(=O)NC(C)C)C[C@@]1([H])N(CC(C)C)C(=O)CO2 | 11.31%
CCC(=O)N1CCC(NC2CCSCC2)C1 (configuration not stated) | -20.97%
CC1N(C)C(=O)COC12CCN(C(=O)CCc1ccccc1)CC2 (configuration not stated) | 9.271%
CC1c2cccn2CCN1C(=O)CCc1nc(C2CC2)no1 (configuration not stated) | 7.661%
Cc1cn(CCn2ccnc2-c2sccc2C)nn1 | -36.18%
CC(C)N(CCNC(=O)c1n[nH]c2ccccc12)C(C)C | -30.64%
CC(C#N)CN(C)Cc1ccc(Cl)c2cccnc12 (configuration not stated) | 28.35%
Cc1ccc2snc(C(=O)N3CCN(C(=O)NCCC(C)C)CC3)c2c1 | 2.853%
Cc1nc(N(C)C)cc(C2(C)CCCNC2)n1 (configuration not stated) | 54.11%
Cc1n[nH]c(C)c1-c1cc(-c2cc[nH]c2)nc(N)c1C#N | 7.991%
COc1ccccc1OCCNC(=O)N1CCC(n2cncn2)CC1 | -66.11%
Cc1cc(Nc2ccc3c(c2)CC(=O)N3)nc(C(C)C)n1 | 17.2%
CCc1nc(CN2CCCC(NCc3cnn(C(C)(C)C)c3)C2)no1 (configuration not stated) | 19.75%
COc1ccc(CN(C)C(=O)CSc2nnc(N)s2)c(OC)c1OC | -28.8%
CCN(CC(=O)Nc1cc(C(C)(C)C)no1)Cc1ccc(Cl)s1 | 3.309%
Cc1nn(C)cc1-c1cc(C(F)(F)F)nn1CCC#N | 30.57%
COc1ccccc1CNC(=O)c1[nH]ncc1Cl | 13.89%
O=C(O)COc1ccccc1CN1CCCC1c1cnccn1 (configuration not stated) | -28.68%
CCc1noc(C(C)N(C)CC(=O)Nc2cccc(C)c2C)n1 (configuration not stated) | 3.16%
COc1ccc(C(NC(=O)NCc2nnc3n2CCC3)C2CC2)cc1 (configuration not stated) | -46.63%
CC(C)C(c1cccnc1)N(C)C(=O)Cc1ccc(O)cc1 (configuration not stated) | 5.402%
CCNC(=O)CN1CCCC(c2ccc(C(=O)O)cc2)C1 (configuration not stated) | -17.95%
c1ccc(-c2nnc3sc(CCN4CCCC4)nn23)cc1 | 15.99%
Cc1cc(NCCNS(=O)(=O)c2cccc(Cl)c2)nc(C)n1 | -33.86%
O=S(=O)(CCCc1ccccc1)Cc1nnnn1C1CC1 | -6.068%
COC[C@@H]1CCC[C@@]12CN(Cc1ccco1)CCO2.O=C(O)C(F)(F)F | 22.45%
COCCCN(Cc1ccncc1)C(=O)C1COc2ccccc2C1 (configuration not stated) | 8.375%
CCN1CCCC(O)(CN(C)Cc2ccccc2F)C1 (configuration not stated) | 15.57%
Cc1cnc(C)c(N2CCN(CCCc3[nH]nc(C)c3C)CC2)n1 | 25.51%
Cc1cc(CN(C)C(=O)C(c2ccccc2C)N(C)C)on1 (configuration not stated) | -7.895%
COc1ncnc(N)c1CNCc1ccccc1-n1cccn1 | 11.23%
O=C(O)C(F)(F)F.O=C(O)C(F)(F)F.[H][C@]12CCN(c3ncccn3)CC[C@@]1([H])S(=O)(=O)CCN2Cc1cccnc1 | 11.75%
CCC(C)(C)C1CCCN1C(=O)c1coc(S(=O)(=O)NC)c1 (configuration not stated) | -32.83%
[H][C@@]12CN(CCOC)C[C@]1([H])[C@H](OC)CCN2C(=O)COc1ccccc1 | 6.452%
CC(=O)N1CCNCC1c1cccc(C(=O)N(C)C)c1 (configuration not stated) | -13.66%
CC1CCN(C(=O)c2ccnc(-n3cncn3)c2)c2ccccc21 (configuration not stated) | -32.43%
CC(C)c1nc(C2CCCNC2)no1.Cl (configuration not stated) | -9.301%
Cc1nnc(NC(=O)NC2CCCc3c2cnn3CCO)s1 (configuration not stated) | -25.18%
CN(C)c1cc(C2CCCN(C(=O)Cn3cc(Cl)cn3)C2)ccn1 (configuration not stated) | -29.06%
Cc1nc(C(=O)N2CCOC(Cc3ccccc3)C2)co1 (configuration not stated) | -11.98%
CC(=O)NCC(=O)N1CCC(c2cncc(Oc3cccnc3)n2)CC1 | -22.82%
CC(C)(C)OC(=O)NCCc1csc(N2CCCC2)n1 | 24.55%
CC(C)(C)OC(=O)N1CCC[C@H](NCc2cc[nH]c2)C1 | 9.809%
Cl.Cl.OC(CN1CCN(Cc2cccc(F)c2)CC1)C1CC1 (configuration not stated) | 8.667%
Cc1ccc2nc(C)c(C)c(C(=O)NCCCn3ccnn3)c2c1 | -12.06%
Cc1ccc(Cl)cc1NC(=O)Cn1cc(C(=O)O)ccc1=O | -21.25%
COc1ccc(CN2CCN(S(=O)(=O)c3cc(C(=O)O)cs3)CC2)cc1 | -0.9166%
Cc1cc(N)nc(C2(C)CCCN2C(=O)Cc2ccc(F)cc2)n1 (configuration not stated) | -49.13%
CC1=Nc2c(c(=O)[nH]n2C(C)C)C(c2ccc3ncccc3c2)S1 (configuration not stated) | 20.7%
CN(C)C(=O)CN1CCN(c2ccnc3c(F)ccc(F)c23)CC1 | -5.121%
CN(C)c1nc2c(c(N3CCCC3)n1)CCN(C(=O)c1ccc[nH]1)CC2 | -10.54%
Fc1ccc(CN2CCc3ncnc(C4CC4)c3CC2)cc1.O=C(O)C(F)(F)F | 25.75%
CC(C)(C)n1cc(C#N)cc1NC(=O)CCNC(=O)c1ccco1 | 5.857%
Cc1nccn1-c1cc(CNC(=O)C2CCCO2)ccn1 (configuration not stated) | -58.61%
O=C(O)C(F)(F)F.O=C(O)C(F)(F)F.[H][C@@]12OCCN(Cc3nccs3)[C@@]1([H])CC[C@@H]2OCc1ccncc1 | 1.129%
Cc1ccc(C)c(CN(CC(N)=O)C(C)C)c1 | 4.243%

For reference, 10 entries once more:

| Compound | effect |
|---|---|
| `CC(=O)NCC(=O)N1CCC(c2cncc(Oc3cccnc3)n2)CC1` | -22.82% |
| `CCN1CCCC(O)(CN(C)Cc2ccccc2F)C1` (configuration not stated) | 15.57% |
| `O=C(O)Cn1ccc(=O)c2ccccc21` | -7.09% |
| `CN(C)C(=O)CN1CCN(c2ccnc3c(F)ccc(F)c23)CC1` | -5.121% |
| `CC1=Nc2c(c(=O)[nH]n2C(C)C)C(c2ccc3ncccc3c2)S1` (configuration not stated) | 20.7% |
| `CC(C)N(CCNC(=O)c1n[nH]c2ccccc12)C(C)C` | -30.64% |
| `COc1ccc(CN2CCN(S(=O)(=O)c3cc(C(=O)O)cs3)CC2)cc1` | -0.9166% |
| `CCNC(=O)CN1CCCC(c2ccc(C(=O)O)cc2)C1` (configuration not stated) | -17.95% |
| `Cc1cn(CCn2ccnc2-c2sccc2C)nn1` | -36.18% |
| `COc1ccc(C(NC(=O)NCc2nnc3n2CCC3)C2CC2)cc1` (configuration not stated) | -46.63% |